Paper PMC9723622
No constants are given. Whether binding was seen depends on the method and setting. In cells and extracts the contact can be indirect. A yes stands for co-enrichment or nearness to the bait. Other partners may have been found.

Protein sequences, listed by entry. Tags and fused reporters are not part of them.
UniProt P09874: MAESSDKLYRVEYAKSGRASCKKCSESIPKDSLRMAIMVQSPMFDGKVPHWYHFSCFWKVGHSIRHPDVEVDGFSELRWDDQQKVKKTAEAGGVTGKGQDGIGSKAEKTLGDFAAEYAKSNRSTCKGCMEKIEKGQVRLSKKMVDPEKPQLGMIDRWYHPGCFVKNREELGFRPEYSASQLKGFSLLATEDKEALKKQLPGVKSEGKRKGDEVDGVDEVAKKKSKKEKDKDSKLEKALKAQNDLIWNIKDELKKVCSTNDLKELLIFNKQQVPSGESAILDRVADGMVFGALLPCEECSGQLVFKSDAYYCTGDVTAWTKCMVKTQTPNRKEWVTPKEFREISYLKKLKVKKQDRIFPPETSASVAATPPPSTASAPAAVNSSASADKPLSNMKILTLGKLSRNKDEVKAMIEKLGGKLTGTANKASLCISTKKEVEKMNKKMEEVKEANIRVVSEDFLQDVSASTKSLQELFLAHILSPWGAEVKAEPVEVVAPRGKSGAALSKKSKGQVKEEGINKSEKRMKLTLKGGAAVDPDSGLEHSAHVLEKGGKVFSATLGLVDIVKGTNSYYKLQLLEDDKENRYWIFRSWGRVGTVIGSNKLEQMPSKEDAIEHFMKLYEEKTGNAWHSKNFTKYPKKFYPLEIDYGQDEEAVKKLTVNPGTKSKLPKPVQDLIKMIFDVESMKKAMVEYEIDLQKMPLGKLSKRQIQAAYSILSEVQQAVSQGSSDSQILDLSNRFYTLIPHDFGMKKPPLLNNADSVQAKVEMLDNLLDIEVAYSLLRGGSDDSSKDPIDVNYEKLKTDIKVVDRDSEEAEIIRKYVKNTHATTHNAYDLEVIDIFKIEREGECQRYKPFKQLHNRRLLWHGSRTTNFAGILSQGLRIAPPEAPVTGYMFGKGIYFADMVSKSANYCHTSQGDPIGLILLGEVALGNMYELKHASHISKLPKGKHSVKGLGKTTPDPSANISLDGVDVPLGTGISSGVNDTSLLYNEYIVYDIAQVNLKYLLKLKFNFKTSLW
UniProt Q9ULW0: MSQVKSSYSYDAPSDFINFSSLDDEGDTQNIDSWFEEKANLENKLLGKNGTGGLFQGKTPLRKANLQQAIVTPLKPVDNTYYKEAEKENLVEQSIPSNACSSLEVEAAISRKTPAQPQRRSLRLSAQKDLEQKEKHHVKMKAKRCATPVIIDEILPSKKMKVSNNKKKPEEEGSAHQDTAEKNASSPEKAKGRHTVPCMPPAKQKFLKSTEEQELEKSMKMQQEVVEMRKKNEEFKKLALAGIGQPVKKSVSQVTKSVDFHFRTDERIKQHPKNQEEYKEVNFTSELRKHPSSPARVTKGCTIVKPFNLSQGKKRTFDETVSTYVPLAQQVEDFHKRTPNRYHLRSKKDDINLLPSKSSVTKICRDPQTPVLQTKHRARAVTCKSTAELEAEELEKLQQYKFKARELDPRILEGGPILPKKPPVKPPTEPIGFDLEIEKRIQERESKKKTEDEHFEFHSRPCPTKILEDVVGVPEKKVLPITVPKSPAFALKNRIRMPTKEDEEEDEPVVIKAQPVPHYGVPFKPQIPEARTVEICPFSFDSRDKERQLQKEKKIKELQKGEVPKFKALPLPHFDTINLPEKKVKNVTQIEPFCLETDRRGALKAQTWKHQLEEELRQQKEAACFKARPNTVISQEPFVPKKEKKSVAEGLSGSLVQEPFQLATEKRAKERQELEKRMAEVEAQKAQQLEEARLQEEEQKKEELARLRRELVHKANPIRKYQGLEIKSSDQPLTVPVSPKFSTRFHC

Experiments:
[1] = target: full-length PARP1 tagged on the N-terminus with APEX2 (expressed in HEK293T cells) (human) (UniProt P09874); assay: proximity labelling; APEX2-PARP1 in HEK293T cells after olaparib or DMSO treatment; SILAC, NeutrAvidin pull-down, LC-MS/MS
[2] = target: full-length PARP1 tagged on the N-terminus with APEX2 (expressed in U2OS cells) (human) (UniProt P09874); assay: proximity labelling; APEX2-PARP1 in SILAC-labelled U2OS cells; 500 uM biotin phenol 2 h, 1 mM H2O2 2 min, against no H2O2; nuclear extract, NeutrAvidin pull-down, LC-MS/MS; FDR < 1%
[3] = target: GFP-tagged TPX2, full length (expressed in U2OS cells) (UniProt Q9ULW0); assay: affinity purification with mass spectrometry; GFP-TPX2 transiently expressed in U2OS; GFP-Trap beads, modified RIPA washes, on-bead digestion, label-free quantification against a GFP control
[4] = target: GFP-tagged TPX2, full length (expressed in U2OS cells) (UniProt Q9ULW0); assay: affinity purification with mass spectrometry; SILAC-based co-IP-MS of the N-terminal deletion mutant or full-length TPX2 in U2OS cells (Supplementary Figure S4d)

Measured: binding

B1: LIG3 (protein, UniProt P49916 43-1009)
chain: LLHGHPLFLRRKPVLSFQGSHLRSRATYLVFLPGLHVGLCSGPCEMAEQRFCVDYAKRGTAGCKKCKEKIVKGVCRIGKVVPNPFSESGGDMKEWYHIKCMFEKLERARATTKKIEDLTELEGWEELEDNEKEQITQHIADLSSKAAGTPKKKAVVQAKLTTTGQVTSPVKGASFVTSTNPRKFSGFSAKPNNSGEAPSSPTPKRSLSSSKCDPRHKDCLLREFRKLCAMVADNPSYNTKTQIIQDFLRKGSAGDGFHGDVYLTVKLLLPGVIKTVYNLNDKQIVKLFSRIFNCNPDDMARDLEQGDVSETIRVFFEQSKSFPPAAKSLLTIQEVDEFLLRLSKLTKEDEQQQALQDIASRCTANDLKCIIRLIKHDLKMNSGAKHVLDALDPNAYEAFKASRNLQDVVERVLHNAQEVEKEPGQRRALSVQASLMTPVQPMLAEACKSVEYAMKKCPNGMFSEIKYDGERVQVHKNGDHFSYFSRSLKPVLPHKVAHFKDYIPQAFPGGHSMILDSEVLLIDNKTGKPLPFGTLGVHKKAAFQDANVCLFVFDCIYFNDVSLMDRPLCERRKFLHDNMVEIPNRIMFSEMKRVTKALDLADMITRVIQEGLEGLVLKDVKGTYEPGKRHWLKVKKDYLNEGAMADTADLVVLGAFYGQGSKGGMMSIFLMGCYDPGSQKWCTVTKCAGGHDDATLARLQNELDMVKISKDPSKIPSWLKVNKIYYPDFIVPDPKKAAVWEITGAEFSKSEAHTADGISIRFPRCTRIRDDKDWKSATNLPQLKELYQLSKEKADFTVVAGDEGSSTTGGSSEENKGPSGSAVSRKAPSKPSASTKKAEGKLSNSNSKDGNMQTAKPSAMKVGEKLATKSSPVKVGEKRKAADETLCQTKVLLDIFTGVRLYLPPSTPDFSRLRRYFVAFDGDLVQEFDMTSATHVLGSRDKNPAAQQVSPEWIWACIRKRRLVAPC
binds: [1] | [2] | [3] | [4]
